Results published in PubChem BioAssay AID504834 (National Center for Advancing Translational Sciences (NCATS), 2011).
Among all 320,000 compounds or so, about 22,000 (6.9%) were called active. The shares of active, inactive and inconclusive entries below differ from those in the screen. Calls come from the whole dose curve; as a rule, active = well fitted inhibition curve with a large enough effect; inconclusive = small, poorly fitted or top-dose-only effect, or another doubt; inactive = no such curve, though single readings can be large or run the other way. Where the call is inconclusive, the potency comes from a doubtful curve fit.

assay: Primary qHTS for delayed death inhibitors of the malarial parasite plastid, 96 hour incubation; details: P. falciparum luciferase reporter growth; series mostly up to 28.7 µM
Summary of the method: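 Plates of compound plus infected erythrocytes (2% hematocrit, 0.05% parasitemia final) incubate 96 hours, 37 C, 5% CO2. Detection reagent added; reduced luminescence from the parasites' luciferase reporter flags inhibition.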
Potency is the fitted concentration of half-maximal effect.

SMILES	Potency
Cc1ccc(C(=O)NC2CCCCC2)cc1S(=O)(=O)N1CCCC1	inconclusive: 2.94 µM [inhibitor, single point]
CCC(c1nnnn1CCOC)N(Cc1cc2c(C)cc(C)cc2[nH]c1=O)CC1CCCO1 (configuration not stated)	inconclusive: 0.185 µM [inhibitor, partial curve, poor fit]
COc1ccccc1N=C(C)C1=C(O)CC(c2ccccc2)CC1=O (configuration not stated)	inconclusive: 20.8 µM [inhibitor, single point]
CC1=C(C(=O)Nc2ccc(Cl)cc2)C(c2ccncc2)C(C#N)=C(SCC(N)=O)N1 (configuration not stated)	inconclusive: 18.5 µM [inhibitor, single point]
O=C(Nc1ccc(Cl)cc1)Nc1csc([N+](=O)[O-])c1	inconclusive: 6.57 µM [inhibitor, partial curve, poor fit]
CCN(CC)S(=O)(=O)c1ccc2c(c1)N(CC(=O)NCC1CCCO1)C(=O)CO2 (configuration not stated)	inconclusive: 10.4 µM [inhibitor, single point]
COc1ccc(C(=O)c2sc3nc(C)cc(-c4cccs4)c3c2N)cc1	inconclusive: 13.1 µM [inhibitor, partial curve, poor fit]
O=C(CCc1nc2ccccc2c(=O)[nH]1)Nc1cc(Cl)ccc1N1CCCCC1	inconclusive: 18.5 µM [inhibitor, single point]
Cc1cc(C)c(OCC(=O)Nc2cccc(O)c2)cc1C	inactive
Cc1cccc(C)c1NC(=O)CNC(=O)c1ccccc1OCc1ccccc1	inactive
Cc1cccc(N2CCN(S(=O)(=O)c3c(C)[nH]c(=O)[nH]c3=O)CC2)c1C	inconclusive: 0.0928 µM [inhibitor, full curve, poor fit]
CCCC(O)(c1ccccc1)C(CN1CCOCC1)c1ccccc1 (configuration not stated)	inconclusive: 10.4 µM [inhibitor, single point]
COc1ccc(C(=O)NCc2nnc(SCC(=O)NCc3ccco3)o2)cc1OC	inconclusive: 18.5 µM [inhibitor, single point]
CCn1cc(NC(=O)CCl)c(C)n1	inconclusive: 2.94 µM [inhibitor, full curve]
CCCN1C2=NCCCN2c2ccccc21	inconclusive: 1.65 µM [inhibitor, partial curve, poor fit]
COCCN1C2=C(COC(C)(C)C2)C(=S)NC1c1ccccc1 (configuration not stated)	inconclusive: 9.28 µM [inhibitor, single point]
N/C(=N\OC(=O)c1ccc(Cl)cc1)c1ccc(Cl)cc1	active: 2.62 µM
CCc1nnc(NC(=O)C(c2ccccc2)c2ccccc2)s1	inconclusive: 6.57 µM [inhibitor, partial curve, poor fit]
COc1ccc(C(CC(=O)Nc2ccc(F)cc2)c2ccccc2)cc1 (configuration not stated)	inconclusive: 8.28 µM [inhibitor, partial curve, poor fit]
CCCCCn1c(CCCNC(=O)CC)nc2ccccc21	inactive
Cc1cc(F)ccc1NC(=O)CCc1c(C)nn(-c2ccc(N3CCCCC3)nn2)c1C	inactive

Quoted at random: 3 records from the list.
SMILES	Potency
Cc1ccc(C(=O)NC2CCCCC2)cc1S(=O)(=O)N1CCCC1	inconclusive: 2.94 µM [inhibitor, single point]
CCN(CC)S(=O)(=O)c1ccc2c(c1)N(CC(=O)NCC1CCCO1)C(=O)CO2 (configuration not stated)	inconclusive: 10.4 µM [inhibitor, single point]
O=C(Nc1ccc(Cl)cc1)Nc1csc([N+](=O)[O-])c1	inconclusive: 6.57 µM [inhibitor, partial curve, poor fit]

Next structures follow.

SMILES	Potency
Cc1cc(C(=O)Nc2ncn(Cc3ccc(F)cc3)n2)ccc1[N+](=O)[O-]	inactive
COc1ccc(C(=O)NCCS(=O)(=O)NC(C)c2ccccc2)cc1 (configuration not stated)	inconclusive: 0.185 µM [inhibitor, partial curve, poor fit]
COc1ccc(N2CCN(C(=O)c3ccc(CS(=O)Cc4ccc(C)cc4)o3)CC2)cc1 (configuration not stated)	inactive
CC(C)S(=O)(=O)c1csc(NC(=O)Nc2cccc([N+](=O)[O-])c2)c1Cl	inconclusive: 1.31 µM [inhibitor, full curve]
Cc1cc(C)c(NC(=O)COC(=O)Cc2cccs2)c(C)c1	inactive
NC(=O)c1ccc(Nc2ccc3nonc3c2[N+](=O)[O-])cc1	inconclusive: 18.5 µM [inhibitor, single point]
COC(=O)c1ccc(CSc2nc3ccc(S(=O)(=O)N4CCOCC4)cc3[nH]2)cc1	inconclusive: 4.65 µM [inhibitor, partial curve, poor fit]
Cc1ccc(S(=O)(=O)NCCSCc2ccco2)cc1	inactive
Fc1ccc(C2c3[nH]c4ccccc4c3CCN2Cc2cccn2-c2ncccn2)cc1 (configuration not stated)	inactive
COc1ccc(C(=O)Nc2ccccc2N2CCOCC2)cc1S(=O)(=O)N1CCOCC1	active: 1.85 µM
O=C(N/N=C/c1ccncc1)c1cc([N+](=O)[O-])cc([N+](=O)[O-])c1O	inconclusive: 0.586 µM [inhibitor, partial curve, poor fit]
CCc1ccc2oc(=O)cc(CN3CCCCC3C)c2c1 (configuration not stated)	inconclusive: 11.7 µM [inhibitor, single point]
Cc1nc2c(c(C)nn2-c2ccccc2)c(C)c1CCC(=O)Nc1ccc(CN2CCCC2)cc1	active: 2.08 µM
CCNC(=O)c1cc(S(=O)(=O)N2CCSCC2)ccc1OC	inconclusive: 9.28 µM [inhibitor, partial curve, poor fit]
COc1ccc2c(=O)c3c(=O)n(-c4ccc(C)cc4)c(-c4ccccc4)nc3oc2c1	inconclusive: 16.5 µM [inhibitor, single point]
COc1ccc(CNC(=O)CN(C(=O)CCC(=O)Nc2nccs2)c2ccccc2C)cc1	inactive
CCOc1cc(C(=O)Nc2cc(C)ccn2)cc(OCC)c1OCC	inconclusive: 2.08 µM [inhibitor, partial curve, poor fit]
O=C(NC1CCCCC1)c1ccccc1NC(=S)NC(=O)C1CCC1	inconclusive: 4.15 µM [inhibitor, partial curve, poor fit]
Cc1ccccc1N1C(N)=NC(N)=NC1(C)C	inconclusive: 0.37 µM [inhibitor, full curve, poor fit]
Nc1cc(OC(=O)c2cccs2)nn1S(=O)(=O)c1ccc(F)cc1	inconclusive: 14.7 µM [inhibitor, partial curve, poor fit]
CN1C(=O)NC(c2ccc(O)cc2)C2=C1CN(c1cccc3ccccc13)C2=O (configuration not stated)	inconclusive: 18.5 µM [inhibitor, single point]
